# From PubChem BioAssay AID328 (DTP/NCI, 2004)
# The list shows only some results of the screen, not a fair sample: it gathers some chemical classes. Not every dose and run of a compound is shown. T/C is the treated group as % of the vehicle group. For survival time, this PubChem deposit counts one and a half times the control or more as active, and values a quarter to a half above the control carry no call in these data; other NCI protocols may use other cut-offs. Schedule codes are those of the source, read here as Q, the interval in days (D) or hours (H), X, the number of doses. Some T/C values are marked as having no survivor count here; that says nothing about deaths at the dose. Some entries were tested several times; their values stand side by side, smallest first.
# Test system: BDF1 mice, P388 leukemia ip, median survival T/C
# Experiment: NCI In Vivo Anticancer Drug Screen. Data for tumor model P388 Leukemia (intraperitoneal) in B6D2F1 (BDF1) mice
# Conditions: T/C endpoint: median survival time, higher T/C = longer survival
# Method: The antitumor activity of compounds was measured in mice bearing transplantable tumors. Survival or tumor size were measured and the results are expressed as the measurement made in the treated group (T) divided by the measurement made in the vehicle treated control group (C). The tumor model used in this assay is P388 Leukemia (intraperitoneal) in B6D2F1 (BDF1) mice
# [1] = dose: 0.63 mg/kg/injection, schedule: Q01DX009 (ip), vehicle: Klucel (hydroxypropylcellulose) (HPC)
# [2] = dose: 1.25 mg/kg/injection, schedule: Q01DX009 (ip), vehicle: Klucel (hydroxypropylcellulose) (HPC)
# [3] = dose: 1.17 mg/kg/injection, schedule: Q04DX003 (ip), vehicle: saline + alcohol
# [4] = dose: 540.0 micrograms/kg/injection, schedule: Q04DX003 (ip), vehicle: other
# [5] = dose: 900.0 micrograms/kg/injection, schedule: Q04DX003 (ip), vehicle: other
# [6] = dose: 5.0 mg/kg/injection, schedule: Q04DX002 (ip), vehicle: saline + alcohol
# [7] = dose: 10.0 mg/kg/injection, schedule: Q04DX002 (ip), vehicle: saline + alcohol
# [8] = dose: 20.0 mg/kg/injection, schedule: Q04DX002 (ip), vehicle: saline + alcohol
smiles,measurement,setting,value
CC(=O)OCC12CC(O)C(C)=CC1OC1C(O)C(OC(C)=O)C2(C)C12CO2 (configuration not stated),T/C,"dose: 0.31 mg/kg/injection, schedule: Q01DX009 (ip), vehicle: saline",125 % of control [survivor count not shown]
same,T/C,"dose: 0.63 mg/kg/injection, schedule: Q01DX009 (ip), vehicle: saline",150 % of control [survivor count not shown]
same,T/C,"dose: 1.25 mg/kg/injection, schedule: Q01DX009 (ip), vehicle: saline",150 [survivor count not shown] and 213 % of control [survivor count not shown]
same,T/C,"dose: 2.5 mg/kg/injection, schedule: Q01DX009 (ip), vehicle: saline",151 [survivor count not shown] and 216 % of control [survivor count not shown]
same,T/C,"dose: 5.0 mg/kg/injection, schedule: Q01DX009 (ip), vehicle: saline",97 % of control [survivor count not shown]
C=C(C)C(=O)OCC12CCC(C)=CC1OC1C(=O)C(OC(=O)C(=C)C)C2(C)C12CO2 (configuration not stated),T/C,"dose: 0.25 mg/kg/injection, schedule: Q01DX005 (ip), vehicle: water",94 [survivor count not shown] and 95 % of control [survivor count not shown]
same,T/C,"dose: 0.5 mg/kg/injection, schedule: Q01DX005 (ip), vehicle: water",101 [survivor count not shown] and 111 % of control [survivor count not shown]
same,T/C,"dose: 1.0 mg/kg/injection, schedule: Q01DX005 (ip), vehicle: water",106 [survivor count not shown] and 113 % of control [survivor count not shown]
same,T/C,"dose: 2.0 mg/kg/injection, schedule: Q01DX005 (ip), vehicle: water",117 [survivor count not shown] and 118 % of control [survivor count not shown]
CC1=C[C@H]2O[C@@H]3C[C@H]4OC(=O)/C=C\C=C\[C@H]([C@@H](C)O)OC[C@H](O)[C@@]5(C)O[C@@H]5C(=O)OC[C@@]2(C[C@H]1O)[C@]4(C)C31CO1 (some centres not stated),T/C,[1],139 % of control [survivor count not shown]
same,T/C,[2],150 % of control [survivor count not shown]
same,T/C,"dose: 2.5 mg/kg/injection, schedule: Q01DX009 (ip), vehicle: Klucel (hydroxypropylcellulose) (HPC)",161 % of control [survivor count not shown]
CC1=CC2OC3CC4OC(=O)/C=C/C=C/C(C(C)O)OCC(O)C(C)CC(=O)OCC2(CC1O)C4(C)C31CO1 (configuration not stated),T/C,"dose: 0.31 mg/kg/injection, schedule: Q01DX009 (ip), vehicle: Klucel (hydroxypropylcellulose) (HPC)",144 % of control [survivor count not shown]
same,T/C,[1],164 % of control [survivor count not shown]
same,T/C,[3],111 % of control [survivor count not shown]
same,T/C,[2],191 % of control [survivor count not shown]
same,T/C,[4],177 % of control [survivor count not shown]
same,T/C,[5],155 % of control [survivor count not shown]
CC(=O)OCC12CCC(C)=CC1OC1C(O)C(O)C2(C)C12CO2 (configuration not stated),T/C,"dose: 2.5 mg/kg/injection, schedule: Q04DX002 (ip), vehicle: saline + alcohol",135 % of control [survivor count not shown]
same,T/C,[6],149 % of control [survivor count not shown]
same,T/C,[7],162 % of control [survivor count not shown]
same,T/C,[8],153 % of control [survivor count not shown]
CC(=O)OC1C(=O)OCC23CCC4(C)OC4C2OC2CC(OC(=O)/C=C/C=C/C(=O)OCCC1C)C3(C)C21CO1 (configuration not stated),T/C,"dose: 1.25 mg/kg/injection, schedule: Q01DX009 (ip), vehicle: saline + alcohol",145 % of control [survivor count not shown]
same,T/C,"dose: 2.5 mg/kg/injection, schedule: Q01DX009 (ip), vehicle: saline + alcohol",154 % of control [survivor count not shown]
same,T/C,"dose: 5.0 mg/kg/injection, schedule: Q01DX009 (ip), vehicle: saline + alcohol",172 % of control [survivor count not shown]
same,T/C,"dose: 10.0 mg/kg/injection, schedule: Q01DX009 (ip), vehicle: saline + alcohol",127 % of control [survivor count not shown]
CC(=O)OCC12CCC(C)CC1O[C@H]1[C@@H](O)[C@H](OC(C)=O)[C@]2(C)[C@@]12CO2 (some centres not stated),T/C,[6],89 % of control [survivor count not shown]
same,T/C,[7],105 % of control [survivor count not shown]
same,T/C,[8],105 % of control [survivor count not shown]
same,T/C,"dose: 40.0 mg/kg/injection, schedule: Q04DX002 (ip), vehicle: saline + alcohol",98 % of control [survivor count not shown]
CC1=C[C@H]2O[C@@H]3C[C@H]4OC(=O)/C=C\C=C\C(C(C)O)OCC(O)C(C)CC(=O)OC[C@@]2(C[C@@H]1O)[C@]4(C)[C@@]31CO1 (some centres not stated),T/C,[3],107 % of control [survivor count not shown]
same,T/C,[4],162 % of control [survivor count not shown]
same,T/C,[5],187 % of control [survivor count not shown]
CC(=O)O[C@H]1C[C@@H]2OC3C=C(C)CCC3(C)[C@@]1(C)[C@@]21CO1 (some centres not stated),T/C,"dose: 7.5 mg/kg/injection, schedule: Q04DX002 (ip), vehicle: saline + alcohol",89 % of control [survivor count not shown]
same,T/C,"dose: 15.0 mg/kg/injection, schedule: Q04DX002 (ip), vehicle: saline + alcohol",89 % of control [survivor count not shown]
same,T/C,"dose: 30.0 mg/kg/injection, schedule: Q04DX002 (ip), vehicle: saline + alcohol",105 % of control [survivor count not shown]
same,T/C,"dose: 60.0 mg/kg/injection, schedule: Q04DX002 (ip), vehicle: saline + alcohol",107 % of control [survivor count not shown]
CC1=C[C@H]2O[C@@H]3C[C@H]4OC(=O)/C=C\C=C\C5OC(C/C(C)=C\C(=O)OCC2(CC1)[C@]4(C)[C@]31CO1)OC5C (some centres not stated),T/C,"dose: 1.56 mg/kg/injection, schedule: Q01DX009 (ip), vehicle: saline with Tween-80",123 % of control [survivor count not shown]
same,T/C,"dose: 3.13 mg/kg/injection, schedule: Q01DX009 (ip), vehicle: saline with Tween-80",130 % of control [survivor count not shown]
same,T/C,"dose: 6.25 mg/kg/injection, schedule: Q01DX009 (ip), vehicle: saline with Tween-80",130 % of control [survivor count not shown]
CC(=O)OCC12C(C=C(C)C(=O)C1O)OC1C(O)C(OC(C)=O)C2(C)C12CO2 (configuration not stated),T/C,[6],122 % of control [survivor count not shown]
C[C@@H](O)[C@H]1/C=C/C=C\C(=O)O[C@@H]2C[C@H]3O[C@@H]4[C@@H]5OC5(C)CCC4(COC(=O)[C@H]4O[C@]4(C)[C@@H](O)CO1)[C@]2(C)[C@]31CO1 (some centres not stated),T/C,"dose: 1.17 mg/kg/injection, schedule: Q04DX003 (ip), vehicle: other",136 % of control [survivor count not shown]
same,T/C,"dose: 1.94 mg/kg/injection, schedule: Q04DX003 (ip), vehicle: other",118 % of control [survivor count not shown]
same,T/C,"dose: 1.94 mg/kg/injection, schedule: Q04DX003 (sc), vehicle: other",127 % of control [survivor count not shown]
same,T/C,"dose: 2.59 mg/kg/injection, schedule: Q04DX003 (ip), vehicle: saline + alcohol",184 % of control [survivor count not shown]
same,T/C,"dose: 3.24 mg/kg/injection, schedule: Q04DX003 (ip), vehicle: other",136 [survivor count not shown] and 177 % of control [survivor count not shown]
same,T/C,"dose: 3.24 mg/kg/injection, schedule: Q04DX003 (sc), vehicle: other",137 % of control [survivor count not shown]
same,T/C,"dose: 4.32 mg/kg/injection, schedule: Q04DX003 (ip), vehicle: saline + alcohol",203 % of control [survivor count not shown]
same,T/C,"dose: 5.4 mg/kg/injection, schedule: Q04DX003 (ip), vehicle: other",133 [survivor count not shown] and 189 % of control [survivor count not shown]
same,T/C,"dose: 5.4 mg/kg/injection, schedule: Q04DX003 (sc), vehicle: other",154 % of control [survivor count not shown]
same,T/C,"dose: 9.0 mg/kg/injection, schedule: Q04DX003 (ip), vehicle: other",136 [survivor count not shown] and 171 % of control [survivor count not shown]
same,T/C,"dose: 12.0 mg/kg/injection, schedule: Q04DX003 (ip), vehicle: saline + alcohol",194 % of control [survivor count not shown]
